No constants are given. Whether binding was seen depends on the method and setting. Binding seen in cells or lysates may run through a third protein. Sequences can lack the tags named with a protein.

For the test, the target named is T1, HA-RAB23 (human) (UniProt Q9ULC3).
T1 sequence: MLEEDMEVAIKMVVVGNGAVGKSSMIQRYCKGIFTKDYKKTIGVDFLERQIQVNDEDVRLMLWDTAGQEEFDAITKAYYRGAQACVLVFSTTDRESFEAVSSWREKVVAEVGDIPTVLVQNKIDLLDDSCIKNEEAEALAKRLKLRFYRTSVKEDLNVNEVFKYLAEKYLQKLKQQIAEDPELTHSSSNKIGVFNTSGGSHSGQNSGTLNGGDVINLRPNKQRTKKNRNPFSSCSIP
Kind of test: co-IP; mouse anti-HA antibody and protein G Mag sepharose on lysates of MG-63 cells transfected with HA-RAB23 pcDNA3.1 (control: IgG on un-transfected cells); cells starved 1 h, osteogenic medium with BMP2 10 min; Pierce IP lysis buffer, 4 °C overnight; western blot. A general note: Immunoblotting shows a protein as a band on a membrane.

Regarding clathrin (human (endogenous in MG-63)), the binding result was “no binding”.

The values are drawn from paper PMC12014981.
